From US20070178095A1
Positions count from the first letter of the chain named. Results are given in words; binding and its absence hold for the method and conditions named. Some binding calls cover weakened binding; strength is not graded here.

T1: recombinant mouse myostatin (R&D systems, Cat. #788-G8/CF, carrier-free) (mouse) (UniProt O08689)
T1 sequence (looked up): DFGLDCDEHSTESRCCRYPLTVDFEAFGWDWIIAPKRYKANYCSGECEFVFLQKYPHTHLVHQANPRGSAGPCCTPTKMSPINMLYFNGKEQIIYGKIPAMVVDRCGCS

T2: peptide immunogen … (human)
T2 sequence (peptide): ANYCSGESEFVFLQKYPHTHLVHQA

B1: Fab 7 (Fab, V domains shown)
VH: QVTLKSGPGILQSSQTLTLTCSLSGFSLTTSGMIVSWIRQSSGRGLEWLAHIYWDDDKRYNPSLRNRLTISKDTLRNQVFLWISSVGTADTATYYCARRAITTVIGGGTMDYWGQGTSVTVSS
VL: QIVLTQSPAIMSASPGEKVTMTCSASSSISYMHWYQQKPGTSPKRWIYDTSKLASGVPARFSGSGSGTSYSLTISSMEAEDAATYYCQQWYSNPLTFGAGTKLELKR
B2: Fab 9 (Fab, V domains shown)
VH: QVTLKESGPGILQSSQTLSLTCSVSGFSLSTSGMSVSWIRQPSGKGLEWLAHIYWDDDKRYNPSLKSRLTISKDTSRNQVFLKITSVDTADTATYYCARRAITTVLGGGTMDYWGQGTSVTVSS
VL: B1 VL with I29V, P39S, A59V, Y91S, S92R

Legend:
[1] = target: T1, recombinant mouse myostatin (R&D systems, Cat. #788-G8/CF, carrier-free) (mouse); test: ELISA, myostatin coated at 1 ug/ml, Fab 0.016-10 ug/ml
[2] = target: T2, peptide immunogen … (human); test: ELISA, peptide coated at 2 ug/ml, Fab 0.016-10 ug/ml
[3] = target: T1, recombinant mouse myostatin (R&D systems, Cat. #788-G8/CF, carrier-free) (mouse); test: ELISA, growth factor coated at 10 ug/ml, Fab at 10 ug/ml

Binder	binding [1]	binding [2]	binding [3]
B1	binds	binds	binds
B2	–	binds	–
